# Data published in the supplement of paper PMC3334620.
# The full ranking holds about 33,000 sequences; the median of “E-score (-0.5 to 0.5)” is about -0.0059, and the highest 2% start at about 0.26. This is one part of the list.
# Molecular target: T1, Cin5 (UniProt P40917)
# T1 sequence: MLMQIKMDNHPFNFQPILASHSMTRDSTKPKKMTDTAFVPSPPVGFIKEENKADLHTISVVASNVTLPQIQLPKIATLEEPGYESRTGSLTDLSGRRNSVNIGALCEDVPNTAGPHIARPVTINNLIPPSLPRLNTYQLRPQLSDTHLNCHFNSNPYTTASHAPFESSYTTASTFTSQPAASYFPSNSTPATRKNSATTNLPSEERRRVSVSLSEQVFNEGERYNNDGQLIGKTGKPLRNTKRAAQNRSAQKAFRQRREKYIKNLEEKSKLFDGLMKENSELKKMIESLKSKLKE
# Test: PBM E-score (8-mer binding enrichment) (E-score (-0.5 to 0.5)); higher = stronger / more preferred TF binding
# Details: protein concentration: 100 nM; construct: GST-full length
# How it was run: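 Bound GST-tagged yeast transcription factors, applied at about 100-200 nM to double-stranded universal all-10-mer Agilent arrays, were detected with fluorescent anti-GST. Scans were normalised with masliner. A modified Wilcoxon-Mann-Whitney statistic, the E-score, was assigned to each ungapped eight-base word pooled with its reverse complement by the Universal PBM Analysis Suite.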
row,Sequence,PBM E-score
1,ATAGACTA,-0.00533
2,CCCACTAC,0.0221
3,AAGCAAGT,0.116
4,CATCTACA,0.156
5,ATCCAAGC,-0.0731
6,GACTGGCC,-0.128
7,CCACGTGC,-0.0809
8,AAGACTAC,0.0417
9,GCATCAAA,0.018
10,AGACGCAC,-0.134
11,AGATCCTA,-0.0804
12,CCTCGCCA,-0.273
13,GGCGGCTA,-0.098
14,TTCGAGAA,0.0129
15,ACCCACGC,-0.114
16,CACCTTGA,0.00105
17,CCACGTGG,-0.213
18,AACACGGG,0.0354
19,GGGTCATA,-0.137
20,ACAAATCC,0.213
21,CCGTAAGC,0.332
22,GTGGTCGA,-0.213
23,AGGTTCAC,-0.0538
24,CGCGTGAG,0.0663
25,AGCGAGCT,0.161

row,Sequence,PBM E-score
1,AAACTACT,0.127
2,GACCGGTA,-0.281
3,GAGTTCGC,-0.0925
4,CAATCTAA,-0.0172
5,AGTGTATA,0.0171
6,GCTAGTAA,0.0686
7,ACTCCAGG,-0.113
8,AACGGAGA,0.0467
9,ATATCGCG,0.301
10,GAGGAGCC,-0.304
11,CCTAGCCC,-0.136
12,AAAGATGT,0.1
13,CGTTGATC,0.0352
14,CACAGGCA,-0.0654
15,ACTGTGGC,-0.203
16,ACGCGTGA,0.174
17,CATTCACC,0.15
18,CGTGCGTC,-0.0137
19,CAAGGCTG,-0.104
20,GGCAGTCA,-0.0167
21,CCTAAAAG,-0.301
22,CAGGAAAG,-0.147
23,AACGTACA,0.123
24,GGTAACTA,0.155
25,CGGCCGGC,-0.186

# A different layout for part of the listing above.
row | Sequence | PBM E-score
9 | GCATCAAA | 0.018
10 | AGACGCAC | -0.134
11 | AGATCCTA | -0.0804
12 | CCTCGCCA | -0.273
13 | GGCGGCTA | -0.098
14 | TTCGAGAA | 0.0129
15 | ACCCACGC | -0.114
16 | CACCTTGA | 0.00105
17 | CCACGTGG | -0.213
18 | AACACGGG | 0.0354
19 | GGGTCATA | -0.137
20 | ACAAATCC | 0.213
21 | CCGTAAGC | 0.332
22 | GTGGTCGA | -0.213
23 | AGGTTCAC | -0.0538
24 | CGCGTGAG | 0.0663
25 | AGCGAGCT | 0.161
2 | GACCGGTA | -0.281
3 | GAGTTCGC | -0.0925
4 | CAATCTAA | -0.0172
5 | AGTGTATA | 0.0171
6 | GCTAGTAA | 0.0686
7 | ACTCCAGG | -0.113
9 | ATATCGCG | 0.301
10 | GAGGAGCC | -0.304
11 | CCTAGCCC | -0.136
12 | AAAGATGT | 0.1
13 | CGTTGATC | 0.0352
14 | CACAGGCA | -0.0654
15 | ACTGTGGC | -0.203
16 | ACGCGTGA | 0.174
17 | CATTCACC | 0.15
18 | CGTGCGTC | -0.0137
19 | CAAGGCTG | -0.104
20 | GGCAGTCA | -0.0167
21 | CCTAAAAG | -0.301
22 | CAGGAAAG | -0.147
23 | AACGTACA | 0.123
25 | CGGCCGGC | -0.186

# More records.

row,Sequence,PBM E-score
1,CGCCTTAG,-0.0138
2,CTCCACTC,-0.232
3,CAGAAACC,0.0186
4,CGTTCGGA,0.057
5,CACAGGGA,-0.183
6,AACGCCCA,0.0379
7,AGCTGTCA,0.0252
8,AACGGCTC,-0.0975
9,CAACGTGC,0.102
10,CTCCGTCC,-0.302
11,AGCACCAT,-0.183
12,ATATAGCG,-0.0366
13,AGGTAAAC,0.183
14,AGCTCTAT,-0.0419
15,CGTGCAAG,-0.121
16,GAATCCAC,0.00882
17,CATATCCG,0.0661
18,GCGGCTCC,-0.325
19,AGCACCCG,-0.171
20,CCGTGGCA,-0.0963
21,CGCTTAGC,-0.0166
22,ACGAATAT,0.193
23,GACAGCGA,-0.121
24,CTTAATTC,0.0475
25,GGATCACC,-0.103

row,Sequence,PBM E-score
1,GTACGACA,0.0253
2,GGTTATTA,0.0772
3,ATCACCCA,-0.141
4,GGAATCCC,-0.04
5,ACCTATTG,-0.0597
6,ACGCATTC,-0.0717
7,CACAGATA,-0.0141
8,GGGGCTTA,-0.0994
9,AGGGACAC,0.0562
10,CAGTCTGC,-0.154
11,ACTTTAGA,0.0646
12,AAACACCG,0.0583
13,ACGATAGC,0.0674
14,AGCGACGC,-0.155
15,ACTTCACG,-0.122
16,ATGACCAC,-0.031
17,GATTCAAC,0.0352
18,GTGCGGAA,0.0768
19,GGACCATA,-0.155
20,AATTCCGC,0.133
21,AAAAGCAT,0.0882
22,CAAGGATC,0.0191
23,CCCGGCAG,-0.0204
24,ATGCGTGG,-0.185
25,ACTAGATC,-0.0649

row,Sequence,PBM E-score
1,GACCTCGA,0.0396
2,ACCTAACG,-0.1
3,ATCCGTGA,0.00318
4,ATCTAAGG,0.115
5,TTGAACAA,-0.0331
6,AAAGTGTA,0.089
7,TCGCTTAA,0.124
8,AGACCGTA,-0.284
9,ATGACGCG,0.138
10,CTCACTTA,0.0594
11,CACGTGGA,0.0737
12,AACTGTCC,-0.091
13,CGCCCTAG,-0.174
14,TGATTGAA,0.172
15,CTCGTAAA,-0.0596
16,CATGTTTC,0.206
17,ATTTATCA,0.209
18,AGGCCCGA,-0.13
19,ACGAAAGA,0.107
20,GGACTCAA,-0.172
21,ATAACGAG,-0.00418
22,GGAACGCA,-0.0875
23,CACTTAGA,0.0661
24,CGTTACAA,0.0849
25,GTAACAGA,0.106

row,Sequence,PBM E-score
1,CCCGCGAC,-0.193
2,AGTTAGCG,0.182
3,CAAGCCCC,-0.209
4,GAGCGGCA,-0.145
5,ATATAAAT,0.28
6,CAGTGACA,-0.0532
7,AACCCAAA,0.0922
8,ACTAGCTG,0.0183
9,ATAGAGAG,-0.2
10,TGTTGCAA,0.18
11,TATGAGCA,-0.101
12,GGTATACC,-0.0512
13,CACCGAGC,-0.0593
14,CCATGCAC,-0.152
15,GGGGACCA,-0.151
16,AGTGTTCC,-0.0301
17,ACTTTTCC,0.237
18,CGTTATTC,-0.0422
19,GCTGAGAA,-0.0505
20,AGCATGTA,0.0616
21,CTTATGAC,0.0887
22,GAATTCGA,0.0262
23,AATCCTGT,0.0812
24,CAAGCTCA,-0.168
25,AGCGGTGG,-0.128

row,Sequence,PBM E-score
1,CGATTATA,0.138
2,AAGTCCTC,-0.131
3,AAAGCGGC,0.0759
4,CGAAGTTA,0.161
5,CTCTCTTA,0.00883
6,AGTGCTCA,-0.185
7,ACTTTAAA,0.14
8,AGACGTGG,-0.0786
9,CGAATAAC,0.157
10,ACCGAGGT,-0.138
11,GAGCCAGC,-0.272
12,GTGTTCAA,-0.0233
13,CCTCACCG,-0.182
14,CCCCCGAC,-0.315
15,CTAGGTAA,0.0544
16,TAACTCGA,0.148
17,AACTTGTC,0.0383
18,CAGTAGCG,-0.0667
19,ACCGCTAG,-0.0932
20,AAACGAGG,-0.108
21,ACACGTGA,0.14
22,TATATTAA,0.287
